Laboratory results published in patent publication US4191753A, “Anti-hypertensive peptide analogs” (University of Miami, priority 1978, dated 1980).
Entries after “also recorded” stand apart in the source; their conditions may differ. At least one peptide structure holds a part that was inferred or is arguable (an end, a ring closure or a residue). Some entries repeat one wording, which the source may state once for all of them.

Protein sequences, listed by entry. Tags and fused reporters are not part of them. Residues count along the entry.
UniProt P12821, 30-1306: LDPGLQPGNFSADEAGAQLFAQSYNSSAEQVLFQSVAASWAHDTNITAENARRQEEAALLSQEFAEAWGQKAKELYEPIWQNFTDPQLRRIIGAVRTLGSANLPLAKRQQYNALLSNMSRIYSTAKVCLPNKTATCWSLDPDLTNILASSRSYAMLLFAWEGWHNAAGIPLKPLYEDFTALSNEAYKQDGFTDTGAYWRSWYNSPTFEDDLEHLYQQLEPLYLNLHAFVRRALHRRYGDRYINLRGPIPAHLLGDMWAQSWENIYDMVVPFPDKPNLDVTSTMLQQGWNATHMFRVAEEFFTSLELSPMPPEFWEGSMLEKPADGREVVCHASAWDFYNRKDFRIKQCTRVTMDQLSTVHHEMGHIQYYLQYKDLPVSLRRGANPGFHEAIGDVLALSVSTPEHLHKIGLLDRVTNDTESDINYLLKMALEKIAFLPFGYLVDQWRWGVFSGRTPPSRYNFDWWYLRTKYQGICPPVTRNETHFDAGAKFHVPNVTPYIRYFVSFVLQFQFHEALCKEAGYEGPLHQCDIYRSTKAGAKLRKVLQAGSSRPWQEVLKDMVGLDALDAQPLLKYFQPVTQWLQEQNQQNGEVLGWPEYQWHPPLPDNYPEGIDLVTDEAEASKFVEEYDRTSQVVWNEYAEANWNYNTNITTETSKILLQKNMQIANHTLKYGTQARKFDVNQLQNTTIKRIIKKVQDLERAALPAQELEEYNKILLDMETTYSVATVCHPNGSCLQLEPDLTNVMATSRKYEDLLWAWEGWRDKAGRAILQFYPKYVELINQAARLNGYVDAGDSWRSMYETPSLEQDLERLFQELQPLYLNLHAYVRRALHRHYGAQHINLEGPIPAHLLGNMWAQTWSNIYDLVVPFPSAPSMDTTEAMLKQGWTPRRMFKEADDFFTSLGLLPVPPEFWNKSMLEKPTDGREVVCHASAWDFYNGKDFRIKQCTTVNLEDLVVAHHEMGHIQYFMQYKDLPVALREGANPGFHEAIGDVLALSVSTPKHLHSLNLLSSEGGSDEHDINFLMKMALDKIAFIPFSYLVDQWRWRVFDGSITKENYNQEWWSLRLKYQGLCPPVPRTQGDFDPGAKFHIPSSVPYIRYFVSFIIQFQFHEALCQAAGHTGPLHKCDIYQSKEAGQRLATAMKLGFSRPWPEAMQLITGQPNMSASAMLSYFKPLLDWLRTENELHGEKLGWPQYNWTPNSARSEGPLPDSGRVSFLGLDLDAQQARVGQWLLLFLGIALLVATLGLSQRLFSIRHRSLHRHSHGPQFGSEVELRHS

Columns and labels:
[1] = tested on: patients with hypertension; conditions: cited from earlier work
[2] = tested on: guinea pigs; assay: Mean arterial blood pressure of guinea pigs anesthetized with pentobarbital; format: in vivo, guinea pig; conditions: for reduction of mean arterial blood pressure (in words): intravenous, 3-4 mg/kg body weight, guinea pigs anesthetized with pentobarbital; for time to the reduction of blood pressure after injection / fall of mean arterial blood pressure / mean arterial blood pressure after injection: single intravenous injection; for time to the reduction of blood pressure after injection: 2 mg; for fall of mean arterial blood pressure / mean arterial blood pressure after injection: 2 mg in 0.25 ml saline, anesthetized guinea pigs
Protocol: ΔPro^3 -BPP9a and ΔPro^5 -BPP9a were tested for their ability to reduce mean arterial blood pressure of guinea pigs anesthetized with pentobarbital, an anesthetic thought to activate the renin-angiotensin system. Female guinea pigs (500-700 g body wgt.) of the Ft. Detrick-Hartley strain were injected intraperitoneally with pentobarbital, 30 mg/kg. Tracheostomy was performed, and the animals were ventilated with a small animal respirator. A polyethylene cannula was inserted into a femoral vein, and heparin, 1,000 units, was injected. A second cannula was inserted into a femoral artery for measurement of arterial blood pressure. The arterial cannula was connected to a pressure transducer, and the transducer was connected to a polygraph. Lead II of the electrocardiogram was monitored continuously.
Each of three guinea pigs received a single intravenous injection of ΔPro^3 -BPP9a, 2 mg in 0.25 ml of 0.9% (w/v) NaCl. On average, mean arterial blood pressure fell by 57.2% (81.7 mmHg to 35 mmHg). The maximum reduction was achieved within 15 sec. of injection. Each of seven guinea pigs received a single intravenous injection of ΔPro^5 -BPP9a, 2 mg in 0.25 ml of saline.

[3] = target: T1, human urinary angiotensin converting enzyme (Homo sapiens, UniProt P12821); assay: Inhibition of hydrolysis of [3H]benzoyl-Gly-His-Leu by human urinary angiotensin converting enzyme; format: biochemical; conditions: compared with BPP9a
T1 construct: human urinary angiotensin converting enzyme, prepared as described by Ryan, J., et al; from tissue; host or cells: human urine
Protocol: ΔPro^3 -BPP9a, ΔPro^5 -BPP9a, ΔPro^8 -BPP9a, and ΔPro^9 -BPP9a were each compared with BPP9a (<Glu-Trp-Pro-Arg-Pro-Gln-Ile-Pro-Pro; also known as SQ 20,881) for their abilities to inhibit the hydrolysis of [^3 H]benzoyl-Gly-His-Leu by human urinary angiotensin converting enzyme, prepared as described by Ryan, J., et al., Tissue and Cell 10, 555 (1978). A standard amount of enzyme (the amount required to hydrolyze 8% of substrate during the course of incubation at 37° C. for 15 min.) was incubated with [^3 H]benzoyl-Gly-His-Leu in a final reaction volume of 100 μl or 110 μl. The reaction mixture contained 0.05 M Hepes buffer, pH 8.0, 0.1 M NaCl, 0.75 M Na2 SO4, [^3 H]-benzoyl-Gly-His-Leu (100 μM at 10 mCi/mmole, enzyme and varying concentrations of inhibitor, from […]. Net enzyme activity was measured in terms of the rate of formation of [^3 H]benzoyl-glycine (^3 H-hippuric acid). Under the conditions of the assay, the initial substrate concentration is approximately one-half of Km. Results are expressed as I50 values, i.e., the concentration of a given inhibitor required to reduce enzyme activity by half.
These factors include the source of enzyme, its purity, the substrate used and its concentration, and the composition of the assay buffer. […] For example, Cushman, et al., supra, reported an I50 value for BPP9a of approximately 1000 nM, whereas Dorer, F.E., et al., Biochim. Biophys. Acta 429, 220 (1976) reported I50 values in the range 12nM-15nM. The sources of such variations are not known.

Structure (SMILES)	response of patients with essential hypertension ([1]; Case et al. 1976, 1977)	blood pressure lowering in patients with essential hypertension ([1]; administration follows treatment with moderate doses of diuretics)	antihypertensive effect in patients with renin-related hypertension ([1]; injected intravenously at 1-4 mg/kg body weight)	reduction of mean arterial blood pressure (in words) [2]	time to the reduction of blood pressure after injection [2] [s]	fall of mean arterial blood pressure [2] [%]	mean arterial blood pressure after injection [2] [mmHg]	ACE inhibitory potency (in words) [3]
CC[C@H](C)[C@H](NC(=O)[C@H](CCC(N)=O)NC(=O)[C@@H]1CCCN1C(=O)[C@H](CCCNC(=N)N)NC(=O)[C@@H]1CCCN1C(=O)[C@H](Cc1c[nH]c2ccccc12)NC(=O)[C@@H]1CCC(=O)N1)C(=O)N1CCC[C@H]1C(=O)N1CCC[C@H]1C(=O)O [BPP9a, <Glu-Trp-Pro-Arg-Pro-Gln-Ile-Pro-Pro]	many patients with essential hypertension respond favorably	effective in lowering blood pressure	potent antihypertensive agent					
CC[C@H](C)[C@H](NC(=O)[C@H](CCC(N)=O)NC(=O)[C@@H]1CCCN1C(=O)[C@H](CCCNC(=N)N)NC(=O)[C@@H]1C=CCN1C(=O)[C@H](Cc1c[nH]c2ccccc12)NC(=O)[C@@H]1CCC(=O)N1)C(=O)N1CCC[C@H]1C(=O)N1CCC[C@H]1C(=O)O [ΔPro^3 -BPP9a, <Glu-Trp-ΔPro-Arg-Pro-Gln-Ile-Pro-Pro]				effective in reducing the mean arterial blood pressure; also recorded: effective blood pressure reducing agents	≤ 15	57.2	35	more inhibitory than BPP9a itself
CC[C@H](C)[C@H](NC(=O)[C@H](CCC(N)=O)NC(=O)[C@@H]1C=CCN1C(=O)[C@H](CCCNC(=N)N)NC(=O)[C@@H]1CCCN1C(=O)[C@H](Cc1c[nH]c2ccccc12)NC(=O)[C@@H]1CCC(=O)N1)C(=O)N1CCC[C@H]1C(=O)N1CCC[C@H]1C(=O)O [ΔPro^5 -BPP9a, <Glu-Trp-Pro-Arg-ΔPro-Gln-Ile-Pro-Pro]				effective in reducing the mean arterial blood pressure; also recorded: effective blood pressure reducing agents	≤ 20	64.5	27.9	more inhibitory than BPP9a itself
CC[C@H](C)[C@H](NC(=O)[C@H](CCC(N)=O)NC(=O)[C@@H]1CCCN1C(=O)[C@H](CCCNC(=N)N)NC(=O)[C@@H]1CCCN1C(=O)[C@H](Cc1c[nH]c2ccccc12)NC(=O)[C@@H]1CCC(=O)N1)C(=O)N1CC=C[C@H]1C(=O)N1CCC[C@H]1C(=O)O [ΔPro^8 -BPP9a, <Glu-Trp-Pro-Arg-Pro-Gln-Ile-ΔPro-Pro]								somewhat less potent than BPP9a
CC[C@H](C)[C@H](NC(=O)[C@H](CCC(N)=O)NC(=O)[C@@H]1CCCN1C(=O)[C@H](CCCNC(=N)N)NC(=O)[C@@H]1CCCN1C(=O)[C@H](Cc1c[nH]c2ccccc12)NC(=O)[C@@H]1CCC(=O)N1)C(=O)N1CCC[C@H]1C(=O)N1CC=C[C@H]1C(=O)O [ΔPro^9 -BPP9a, <Glu-Trp-Pro-Arg-Pro-Gln-Ile-Pro-ΔPro]								more inhibitory than BPP9a itself
